# Source: the supplement of paper PMC3334620
# Over roughly 33,000 sequences, “E-score (-0.5 to 0.5)” has its median near -0.015; the highest 2% begin near 0.3. Some of the results follow.
# Biological target: T1, Abf1 (UniProt P14164)
# T1 sequence: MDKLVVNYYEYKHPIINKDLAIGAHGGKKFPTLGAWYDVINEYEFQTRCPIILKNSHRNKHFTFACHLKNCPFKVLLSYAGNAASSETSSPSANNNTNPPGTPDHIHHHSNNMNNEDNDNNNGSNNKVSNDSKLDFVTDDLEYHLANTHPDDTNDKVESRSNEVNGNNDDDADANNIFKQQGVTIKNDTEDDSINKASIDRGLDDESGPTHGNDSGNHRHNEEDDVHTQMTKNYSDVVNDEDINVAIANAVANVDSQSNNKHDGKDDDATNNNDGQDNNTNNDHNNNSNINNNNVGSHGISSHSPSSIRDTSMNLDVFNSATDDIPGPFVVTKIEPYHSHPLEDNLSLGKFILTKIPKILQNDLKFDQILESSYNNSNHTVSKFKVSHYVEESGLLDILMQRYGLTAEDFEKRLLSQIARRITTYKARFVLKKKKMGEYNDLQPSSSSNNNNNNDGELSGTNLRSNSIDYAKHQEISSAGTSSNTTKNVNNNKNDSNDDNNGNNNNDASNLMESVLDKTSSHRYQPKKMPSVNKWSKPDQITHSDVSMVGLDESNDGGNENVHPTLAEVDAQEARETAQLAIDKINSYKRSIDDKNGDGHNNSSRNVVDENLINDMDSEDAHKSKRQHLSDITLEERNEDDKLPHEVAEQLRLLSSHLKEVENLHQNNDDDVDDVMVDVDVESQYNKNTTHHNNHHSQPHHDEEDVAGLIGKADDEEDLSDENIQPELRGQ
# Test: PBM E-score (8-mer binding enrichment) (E-score (-0.5 to 0.5)); higher = stronger / more preferred TF binding
# Details: protein concentration: 200 nM; construct: GST-full length
# Protocol: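 Universal 'all 10-mer' protein binding microarrays (Agilent AMADID 015681) probed with GST-tagged S. cerevisiae TFs (full-length or DBD) made by in vitro transcription/translation (PURExpress), about 100-200 nM. Bound TF was detected with fluorescent anti-GST. Each ungapped 8-mer (which stands for itself and its reverse complement) is scored by the PBM enrichment score (E-score), a modified Wilcoxon-Mann-Whitney statistic from -0.5 to +0.5, computed with the Universal PBM Analysis Suite. Scale: above 0.35 generally sequence-specific binding.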
row,Sequence,PBM E-score
1,AAGCCGCT,-0.175
2,ACCGTATA,0.384
3,CATAATAA,0.216
4,AATTGCGT,0.0893
5,ACTCTCAC,-0.0836
6,AGATACTG,0.115
7,AAATGTGA,0.228
8,AGCGCTCA,0.0307
9,CCTTGTCA,0.155
10,AATGACGA,0.36
11,AATATTGC,0.174
12,CACACAGC,-0.153
13,CCTGAATA,0.102
14,CACGATAG,0.179
15,AGTTACAG,0.0753
16,ACACGGTC,-0.0126
17,AGCGGAAT,-0.0831
18,CGAACGCC,0.151
19,GATCATTA,0.261
20,GCAGTCAA,-0.127
21,AGCTGGGC,-0.138
22,CCAAATGA,0.251
23,GCCAAGGC,-0.255
24,CTAAAAAG,-0.00165
25,CAGTGTCG,-0.159

row,Sequence,PBM E-score
1,AGATCGAC,-0.0288
2,TCCACACA,-0.107
3,AAATTCGA,-0.0902
4,GGCATTGA,0.0468
5,ATGCACTG,-0.0711
6,AATATTTA,0.238
7,CACTACTC,0.189
8,ACCAAAGA,0.243
9,TAGCAATA,0.216
10,ATTGGGAG,0.0823
11,CGTATAGC,0.165
12,AGAACAAT,0.134
13,GTCGTAAA,0.184
14,AAAGTGTG,0.0246
15,AAAACTCC,-0.0741
16,CCAACACC,-0.23
17,ACATAGCC,0.0108
18,AGAGAACA,0.071
19,CCCTATTC,0.0667
20,AGGAGCCG,-0.192
21,CCCGCTGA,-0.17
22,ATTCCCGC,0.00578
23,AGGCAGAG,-0.191
24,ACTCCACC,0.032
25,GGTGGTCA,-0.0604

row,Sequence,PBM E-score
1,TGTGGAAA,0.0635
2,ATCTTTTC,0.081
3,AACTATTC,0.0304
4,CAAGCGTA,-0.0445
5,CACCTCGC,-0.0945
6,AGTTATTG,0.0563
7,ACGGGAGT,0.214
8,CTTAACAC,0.111
9,CCCTGCAA,-0.213
10,AAGCCCTA,-0.0285
11,CCTTGGCA,-0.211
12,GTATCAAA,0.289
13,CACATTCC,0.00518
14,CCCATAGG,-0.0295
15,CTGGCCAA,-0.118
16,CGGCTATC,0.148
17,AAGGGGCC,-0.226
18,ACGGTTGC,0.104
19,GTTATCGA,0.0373
20,ATGCGCGC,-0.0241
21,ACTTAAAA,0.0763
22,ACAGCGAC,0.0222
23,CGGCAGTA,0.0137
24,AGGTAGAG,-0.194
25,ATTCCCGG,0.154

row,Sequence,PBM E-score
1,GCTCAAGC,-0.203
2,AAAAATAA,0.113
3,TTAAGAAA,0.0332
4,AGAAAATA,0.0727
5,CACGTGGG,-0.0582
6,CCCGGTCC,-0.166
7,GGCCCATA,-0.151
8,AAGCTTGC,-0.183
9,GGACGCTA,-0.131
10,ACCGCGAC,0.0617
11,CCGTAGAA,0.298
12,GATAGAAA,-0.112
13,TCCCAGGA,-0.121
14,ACCTGCCT,-0.0725
15,ATACGGAA,0.299
16,CTAGATAG,-0.0573
17,CCGATCGA,-0.297
18,AGTCACGC,3e-05
19,AAATCTTC,-0.0238
20,GAATTCCA,0.135
21,AGAGAACC,-0.249
22,ACTTGGGC,-0.164
23,CCTAAGAG,-0.0103
24,TGGCCCCA,-0.247
25,ATAGGTTC,-0.106

# Taken from above.
# Entry for ACTTGGGC under PBM E-score: -0.164
# Entry for CCGTAGAA under PBM E-score: 0.298
# Entry for CCCGGTCC under PBM E-score: -0.166
# Entry for AGAGAACC under PBM E-score: -0.249

# Further entries:

row,Sequence,PBM E-score
1,GTTCGAAA,0.229
2,AAGTTTTA,0.091
3,CTTATGAA,-0.0835
4,TACAGTAA,0.0132
5,CGTTATCA,0.205
6,AACCCCCT,-0.262
7,CATGGAAG,-0.0245
8,ATGACGGG,0.122
9,ATTACATG,0.0835
10,ACTCTGTA,-0.207
11,AAAGTAGC,0.0993
12,AAGCAATC,0.167
13,TGTTCGAA,-0.0208
14,AACATGAA,0.0277
15,ACTCGTTG,-0.00197
16,GTGGGGTA,-0.0965
17,GAGGTTGC,-0.163
18,AGAACTCC,-0.0954
19,CCCTTCGA,-0.312
20,GAAATCGA,-0.13
21,AAGACAGC,-0.0614
22,ATTTTAAC,-0.0122
23,ATTCACCC,-0.0517
24,TCCCGGAA,-0.0382
25,AGCTTCAA,0.0465

row,Sequence,PBM E-score
1,AGAATCCT,0.0437
2,TAGTGTCA,0.117
3,TACGTTGA,0.134
4,CGCTCTCA,-0.105
5,AATAGGAT,0.144
6,GGAATTAC,0.0503
7,CTCGTTTC,0.129
8,CCGTAATA,0.268
9,CGAGGCAC,-0.0782
10,CGAGAGAA,0.0467
11,GGAGTACC,-0.241
12,ATGAAATC,0.044
13,ACACCCGA,0.0113
14,GCTGAACC,-0.0709
15,AAGATTCC,0.164
16,ATATAGTC,0.142
17,ACCACTGA,-0.163
18,CGTGTATC,0.0937
19,CCCCCTAC,-0.27
20,CCAATGAA,-0.015
21,GGAACCGA,-0.0196
22,CGCCCGGC,-0.161
23,AGGGCGTG,-0.117
24,CCCTCGTA,0.126
25,AGTATATG,0.0541

# Laid out differently: entries from further up
row | Sequence | PBM E-score
14 | GCTGAACC | -0.0709
15 | AAGATTCC | 0.164
16 | ATATAGTC | 0.142

# Some of the entries so far, with bars between the fields:
row | Sequence | PBM E-score
13 | CACATTCC | 0.00518
14 | CCCATAGG | -0.0295
15 | CTGGCCAA | -0.118
16 | CGGCTATC | 0.148
17 | AAGGGGCC | -0.226

# (listing goes on)

row,Sequence,PBM E-score
1,CATTGACA,-0.105
2,AACGCCAT,-0.0389
3,CCAACGCG,-0.128
4,CTGCATGA,-0.00665
5,AACGACGT,0.19
6,CACGAAGG,0.179
7,ATGACCAT,0.0632
8,CATCACAG,-0.0365
9,CCCCTAAC,-0.121
10,CCCGGCGA,-0.174
11,GAAGCGGA,-0.207
12,AGGACTAT,-0.28
13,GAGCAAAC,0.0213
14,CTATCTTC,0.115
15,GCAAACGA,0.239
16,ACGCGAGA,-0.145
17,AATTTTCG,0.111
18,AGGACAAG,-0.0635
19,GGCTACAC,-0.275
20,CACAGCAC,0.0916
21,ACAAGTAC,-0.105
22,GACAGGTA,-0.116
23,AGGGAGAG,-0.19
24,AAAGACGA,0.201
25,GGATCGCC,0.0808

row,Sequence,PBM E-score
1,GGATCAAA,0.0154
2,CCGGGACC,-0.271
3,AAGACCAT,-0.119
4,GAAGGGAC,-0.192
5,ATGTTTCA,-0.0473
6,CCTATAGA,-0.0595
7,CCCCGAAG,-0.236
8,AAGCTGAT,0.176
9,GAGATCAA,0.109
10,CGTATATA,0.357
11,CTCACAAG,0.0693
12,ATCCATGG,-0.154
13,CTAAATCC,0.0568
14,GCTTGTAA,0.0117
15,AGTTCTCC,-0.295
16,AACGCTAA,-0.137
17,CTTTGGTC,0.114
18,CGGGATTC,0.117
19,CATTGAGG,-0.0111
20,AGCACTAA,0.154
21,AGGTAGGC,-0.222
22,CACGTCGA,0.0691
23,CCTTGGTA,0.00383
24,AGAGTCCG,-0.126
25,AGAGTTCC,-0.159

row,Sequence,PBM E-score
1,ACCTTGTC,-0.0599
2,ACTCCGTG,-0.00947
3,GATATACA,0.111
4,GACCATCC,-0.116
5,CGAGGTCC,-0.125
6,AAACCTCT,-0.176
7,ATTCCATG,-0.0717
8,CTATGCCC,-0.161
9,ATTACGCA,0.14
10,AAACTGGG,-0.289
11,ATGCATTG,-0.0288
12,AGGGGCCG,-0.283
13,CTCCTAAG,-0.278
14,GGGTGATA,0.38
15,CCGATAAA,0.0459
16,CACAGACA,0.0762
17,AACAGGTC,-0.0458
18,ATGAAAAC,0.0592
19,TGACAGAA,0.188
